Laboratory results as given in patent publication US20150005207A1, “SYSTEMS AND METHODS FOR PRODUCING DIMETHYL SULFIDE FROM GASIFIED COKE” (SHELL OIL COMPANY, priority 2013, published 2015).

Test: Oil recovery from formation core by brine displacement followed by DMS displacement
Details: 0.05 ml/min
[1] = Core 1, after brine displacement, 32 hours
[2] = Core 2, after brine displacement, 15 hours

## CSC [Dimethyl Sulfide, dimethyl sulfide]
[1]
  Oil produced DMS displacement: 3.5 mL
  Oil produced DMS displacement (of % oil initially in core): 32%
[2]
  Oil produced DMS displacement: 3.3 mL
  Oil produced DMS displacement (of % oil initially in core): 30%
